Test results published in patent US20260207753A1, “PROTAC DEGRADATION OF FACTORS PAX3 AND FOXO1” (THE RESEARCH INSTITUTE AT NATIONWIDE CHILDREN'S HOSPITAL, priority 2022, published 2026).
Some results were stated once for a whole list of compounds, not compound by compound.

System: PAX3-FOXO1 fusion
Assay: Western blot of soluble nuclear extracts: PAX3-FOXO1 fusion loss in RH4 cells
Assay type: cell-based, human
Conditions: 125 nM SMARCA4-31 or 250 nM DL-dS2-4, FIG. 6B
Method: The inventors investigated the effect of a number of PROTAC inhibitors on fusion-positive and negative RMS cell models. The experiment was designed as follows. Fusion-positive RMS (RH4 and RH30) and fusion-negative RMS (RD and CTR) cells were treated with DMSO or 1 μM dBRD9, DL-ds2-4, or SMARCA4-31 for 24 hours. Soluble nuclear extracts were prepared to assess target degradation as well as abundance of additional SWI/SNF complex subunits and the transcription factor FOXO1 (wild-type and PAX3-FOXO1 fusion).
The inventors also investigated whether the effect of the compounds was reversible. Fusion-positive RMS RH4 cells were treated for 24 hours with DMSO including […] dBRD9, DL-ds2-4, or SMARCA4-31. After the treatment period cells were collected or washed extensively to remove the compound and incubated in untreated growth media for an additional 24-hour period. Soluble nuclear extracts were prepared to assess target degradation and recovery.
In FIG. 6A, RH4 cells were treated for 24 hours with the indicated dose of SMARCA4-31 (labeled S4-31) or DL-dS2-4 (labeled S2-4).
In FIG. 6B, RH4 cells were treated with 125 nM SMARCA4-31 (labeled S4-31) or 250 nM DL-dS2-4 (labeled S2-4) for the indicated time.

Compound: O=C1CCC(N2C(=O)c3cccc(NCCCCNC(=O)c4cccc(C#Cc5cc(NC(=O)Nc6ccnc(Cl)c6)ccn5)c4)c3C2=O)C(=O)N1 (racemic) [DL-dS2-4]
- PROTAC exposure time to complete PAX3-FOXO1 loss: ≤ 12 h

Compound: O=C1CCC(N2C(=O)c3ccc(NCCCCCCCCOCCc4cccc(N5C[C@H]6C[C@@H]5CN6/C=C/C(=O)c5ccccc5O)c4)cc3C2=O)C(=O)N1 (some centres unmarked) [SMARCA4-31]
- PROTAC exposure time to complete PAX3-FOXO1 loss: ≤ 12 h
